Measurements reported in patent publication US20230312739A1 (BIOTHEUS, published 2023).
These are yes or no findings as the source states them, for the method shown. Some entries that bind do so weakly or less than the wild type.

How the values were obtained:
[1] = target: CD73 on cynomolgus macaques CD3+CD8+ T cells (cynomolgus macaques); test: flow cytometry on cynomolgus macaque PBMC
[2] = target: CD73 on cynomolgus macaques CD3+CD8+ T cells (cynomolgus macaques); test: flow cytometry on cynomolgus macaque PBMC (donor 1132F), gated on CD3+CD8+ T cells, DyLight488 secondary antibody

B1: murine antibody 13D12 (antibody, V domains shown)
VH: DVKLQESGPAMVKPSQSLSLTCTVTGYSITSGYDWHWIRLFPGNKLEWMGYISYSGYTDYSPSLKSRISITHDTSKNHFFLKLHSVTTEDTATYYCTRGDHSYAMDYWGQGTSVTVS
VL: DIVMTQSHKFMSTSVGDRVSITCKASQAVGTAVAWYQQKPGQSPKLLIYWASSRHTGVPDRFTGSRSGTDFTLTISSVQSEDLADYFCQQYSSYPLTFGGGTNLEIK
notes: Mouse monoclonal antibody purified from hybridoma supernatant; also called mouse monoclonal antibody 13D12
With B1 the binding [1] was “binds” and the binding [2] was “binds”.
